The supplement of paper PMC10849652
Some of the results follow.

Chains of the proteins cited; added tags and fusions are not shown. Lines headed by an entry give the natural chain unless they say otherwise; changes in a name come on top.
UniProt Q96F07, whole entry, looked up: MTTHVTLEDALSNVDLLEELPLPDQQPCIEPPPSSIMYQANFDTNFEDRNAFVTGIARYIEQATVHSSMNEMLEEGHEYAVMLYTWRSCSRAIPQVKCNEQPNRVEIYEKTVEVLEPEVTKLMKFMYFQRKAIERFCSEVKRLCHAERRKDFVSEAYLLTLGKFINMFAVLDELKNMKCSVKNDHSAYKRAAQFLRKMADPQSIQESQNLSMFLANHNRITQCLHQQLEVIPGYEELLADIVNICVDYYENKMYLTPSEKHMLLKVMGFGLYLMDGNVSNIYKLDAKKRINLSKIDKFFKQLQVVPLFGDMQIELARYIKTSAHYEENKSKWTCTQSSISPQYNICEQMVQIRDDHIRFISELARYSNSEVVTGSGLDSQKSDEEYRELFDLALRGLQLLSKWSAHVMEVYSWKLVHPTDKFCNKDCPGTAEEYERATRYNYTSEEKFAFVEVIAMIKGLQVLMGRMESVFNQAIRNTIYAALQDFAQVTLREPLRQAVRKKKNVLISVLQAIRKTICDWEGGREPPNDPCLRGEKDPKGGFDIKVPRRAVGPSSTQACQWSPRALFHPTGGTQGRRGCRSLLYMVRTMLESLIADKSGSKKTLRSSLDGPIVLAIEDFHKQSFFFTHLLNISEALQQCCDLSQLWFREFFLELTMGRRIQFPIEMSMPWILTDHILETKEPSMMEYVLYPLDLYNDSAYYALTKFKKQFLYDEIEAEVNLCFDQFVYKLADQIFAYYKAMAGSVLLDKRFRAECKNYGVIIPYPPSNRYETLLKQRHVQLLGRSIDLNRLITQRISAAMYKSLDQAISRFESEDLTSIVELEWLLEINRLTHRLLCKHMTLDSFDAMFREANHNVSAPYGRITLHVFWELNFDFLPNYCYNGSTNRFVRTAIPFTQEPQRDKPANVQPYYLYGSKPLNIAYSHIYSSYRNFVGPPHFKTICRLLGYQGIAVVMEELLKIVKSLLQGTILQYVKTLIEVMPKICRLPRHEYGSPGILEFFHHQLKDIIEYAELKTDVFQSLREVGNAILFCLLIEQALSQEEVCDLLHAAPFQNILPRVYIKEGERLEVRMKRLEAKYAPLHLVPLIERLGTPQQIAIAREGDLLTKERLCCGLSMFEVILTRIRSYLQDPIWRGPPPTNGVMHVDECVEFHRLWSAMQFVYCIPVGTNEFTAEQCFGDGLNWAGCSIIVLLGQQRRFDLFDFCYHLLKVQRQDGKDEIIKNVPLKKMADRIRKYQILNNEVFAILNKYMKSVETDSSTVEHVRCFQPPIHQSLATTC
UniProt P99999: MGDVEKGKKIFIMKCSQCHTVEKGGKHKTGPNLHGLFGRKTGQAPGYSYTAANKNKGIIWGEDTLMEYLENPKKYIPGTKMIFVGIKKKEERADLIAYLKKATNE
UniProt Q6PI48: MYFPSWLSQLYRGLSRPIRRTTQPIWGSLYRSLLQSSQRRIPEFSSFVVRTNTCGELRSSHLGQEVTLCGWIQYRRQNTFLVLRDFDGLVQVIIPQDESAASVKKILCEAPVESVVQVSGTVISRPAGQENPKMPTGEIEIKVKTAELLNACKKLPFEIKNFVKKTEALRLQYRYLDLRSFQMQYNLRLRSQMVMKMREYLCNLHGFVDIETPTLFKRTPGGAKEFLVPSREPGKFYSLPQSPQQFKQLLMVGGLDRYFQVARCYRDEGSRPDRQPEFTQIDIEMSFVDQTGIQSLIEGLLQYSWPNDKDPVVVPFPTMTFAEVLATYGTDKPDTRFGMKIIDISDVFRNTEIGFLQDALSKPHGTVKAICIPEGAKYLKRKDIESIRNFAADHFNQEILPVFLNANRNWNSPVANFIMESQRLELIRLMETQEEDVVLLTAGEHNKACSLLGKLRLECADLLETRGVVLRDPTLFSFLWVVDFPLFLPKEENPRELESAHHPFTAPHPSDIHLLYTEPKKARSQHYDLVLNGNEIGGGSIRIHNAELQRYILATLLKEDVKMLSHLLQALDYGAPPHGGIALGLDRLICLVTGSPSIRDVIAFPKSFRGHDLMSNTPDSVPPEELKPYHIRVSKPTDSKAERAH
UniProt Q8WVC6: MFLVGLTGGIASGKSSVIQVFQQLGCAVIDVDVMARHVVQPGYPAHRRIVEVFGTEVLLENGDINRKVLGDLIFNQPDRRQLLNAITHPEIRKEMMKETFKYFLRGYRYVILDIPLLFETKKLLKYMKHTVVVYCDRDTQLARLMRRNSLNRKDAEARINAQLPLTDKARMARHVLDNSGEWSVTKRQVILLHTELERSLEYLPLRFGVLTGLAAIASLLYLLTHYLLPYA
UniProt Q9H0L4: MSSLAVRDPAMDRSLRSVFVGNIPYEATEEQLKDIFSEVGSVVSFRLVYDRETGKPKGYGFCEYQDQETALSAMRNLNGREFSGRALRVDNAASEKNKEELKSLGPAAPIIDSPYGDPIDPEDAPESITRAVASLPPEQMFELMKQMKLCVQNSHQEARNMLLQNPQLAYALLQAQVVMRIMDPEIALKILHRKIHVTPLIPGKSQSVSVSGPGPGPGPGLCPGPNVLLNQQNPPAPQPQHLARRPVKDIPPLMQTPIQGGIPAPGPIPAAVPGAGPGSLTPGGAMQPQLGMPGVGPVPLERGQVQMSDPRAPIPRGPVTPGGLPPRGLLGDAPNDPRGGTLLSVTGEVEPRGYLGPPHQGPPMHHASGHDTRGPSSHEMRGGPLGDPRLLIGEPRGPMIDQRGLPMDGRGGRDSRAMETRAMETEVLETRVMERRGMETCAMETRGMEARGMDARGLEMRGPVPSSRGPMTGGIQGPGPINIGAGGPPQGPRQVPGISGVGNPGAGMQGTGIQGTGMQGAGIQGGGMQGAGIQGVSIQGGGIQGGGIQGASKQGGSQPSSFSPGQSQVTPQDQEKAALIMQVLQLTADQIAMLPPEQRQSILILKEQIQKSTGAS
UniProt Q13617, whole entry, looked up: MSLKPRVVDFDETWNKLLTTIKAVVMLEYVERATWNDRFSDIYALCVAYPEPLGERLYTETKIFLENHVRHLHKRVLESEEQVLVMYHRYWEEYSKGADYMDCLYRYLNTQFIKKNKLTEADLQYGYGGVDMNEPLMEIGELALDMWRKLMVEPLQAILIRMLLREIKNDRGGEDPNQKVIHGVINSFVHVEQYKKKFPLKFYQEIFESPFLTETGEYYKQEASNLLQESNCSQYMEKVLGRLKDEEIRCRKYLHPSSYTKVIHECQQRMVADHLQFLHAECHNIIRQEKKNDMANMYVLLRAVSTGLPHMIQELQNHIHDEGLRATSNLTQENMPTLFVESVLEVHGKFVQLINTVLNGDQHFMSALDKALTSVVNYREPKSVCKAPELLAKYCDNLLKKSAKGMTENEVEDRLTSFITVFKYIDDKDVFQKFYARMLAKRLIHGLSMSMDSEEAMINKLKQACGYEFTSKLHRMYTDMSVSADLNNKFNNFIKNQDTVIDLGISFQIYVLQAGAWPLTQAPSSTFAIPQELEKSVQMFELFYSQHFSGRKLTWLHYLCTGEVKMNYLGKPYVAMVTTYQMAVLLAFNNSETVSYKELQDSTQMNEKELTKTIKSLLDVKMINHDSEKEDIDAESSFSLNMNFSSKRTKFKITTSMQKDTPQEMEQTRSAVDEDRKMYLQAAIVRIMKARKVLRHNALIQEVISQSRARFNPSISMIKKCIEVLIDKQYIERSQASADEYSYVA
UniProt P26232: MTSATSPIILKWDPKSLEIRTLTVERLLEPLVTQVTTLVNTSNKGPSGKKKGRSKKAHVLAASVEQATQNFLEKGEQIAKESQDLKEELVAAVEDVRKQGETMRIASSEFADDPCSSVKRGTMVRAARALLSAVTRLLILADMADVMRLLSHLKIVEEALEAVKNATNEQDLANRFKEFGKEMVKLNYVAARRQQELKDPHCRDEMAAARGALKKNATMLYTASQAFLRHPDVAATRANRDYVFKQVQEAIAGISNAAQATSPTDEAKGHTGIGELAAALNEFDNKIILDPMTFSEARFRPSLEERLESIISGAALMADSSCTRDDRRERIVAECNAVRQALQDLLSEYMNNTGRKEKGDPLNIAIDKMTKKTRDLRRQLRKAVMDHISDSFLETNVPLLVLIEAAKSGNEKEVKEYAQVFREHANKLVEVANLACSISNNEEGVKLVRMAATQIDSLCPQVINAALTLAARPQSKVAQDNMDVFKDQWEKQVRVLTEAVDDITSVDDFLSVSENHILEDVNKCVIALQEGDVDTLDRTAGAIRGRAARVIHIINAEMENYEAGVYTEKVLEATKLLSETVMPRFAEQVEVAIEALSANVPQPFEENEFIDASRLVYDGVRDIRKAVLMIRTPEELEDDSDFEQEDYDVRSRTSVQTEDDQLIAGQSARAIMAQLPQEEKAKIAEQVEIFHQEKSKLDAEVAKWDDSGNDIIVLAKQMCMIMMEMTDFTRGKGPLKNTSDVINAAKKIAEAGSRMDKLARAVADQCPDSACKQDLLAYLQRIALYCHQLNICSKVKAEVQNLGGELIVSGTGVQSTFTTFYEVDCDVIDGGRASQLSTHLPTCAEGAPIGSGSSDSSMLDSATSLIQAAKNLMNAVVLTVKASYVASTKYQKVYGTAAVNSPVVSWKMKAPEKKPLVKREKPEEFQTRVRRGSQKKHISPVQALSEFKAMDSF
UniProt O43310: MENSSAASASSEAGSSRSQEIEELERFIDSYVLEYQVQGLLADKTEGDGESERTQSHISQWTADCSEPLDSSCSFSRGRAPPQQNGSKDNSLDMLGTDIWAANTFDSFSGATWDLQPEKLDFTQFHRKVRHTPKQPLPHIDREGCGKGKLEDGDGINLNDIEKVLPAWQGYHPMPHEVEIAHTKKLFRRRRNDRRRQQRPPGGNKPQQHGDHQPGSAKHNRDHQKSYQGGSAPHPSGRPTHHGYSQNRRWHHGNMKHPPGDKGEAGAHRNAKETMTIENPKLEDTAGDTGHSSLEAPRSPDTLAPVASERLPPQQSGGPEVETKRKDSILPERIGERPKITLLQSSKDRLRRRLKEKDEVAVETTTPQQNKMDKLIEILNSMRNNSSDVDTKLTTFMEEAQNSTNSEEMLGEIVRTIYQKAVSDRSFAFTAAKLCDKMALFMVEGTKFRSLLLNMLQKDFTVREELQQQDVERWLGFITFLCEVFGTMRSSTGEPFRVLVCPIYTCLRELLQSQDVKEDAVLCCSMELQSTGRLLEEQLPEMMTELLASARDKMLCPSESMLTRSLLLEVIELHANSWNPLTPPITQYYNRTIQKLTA
UniProt Q6UW02: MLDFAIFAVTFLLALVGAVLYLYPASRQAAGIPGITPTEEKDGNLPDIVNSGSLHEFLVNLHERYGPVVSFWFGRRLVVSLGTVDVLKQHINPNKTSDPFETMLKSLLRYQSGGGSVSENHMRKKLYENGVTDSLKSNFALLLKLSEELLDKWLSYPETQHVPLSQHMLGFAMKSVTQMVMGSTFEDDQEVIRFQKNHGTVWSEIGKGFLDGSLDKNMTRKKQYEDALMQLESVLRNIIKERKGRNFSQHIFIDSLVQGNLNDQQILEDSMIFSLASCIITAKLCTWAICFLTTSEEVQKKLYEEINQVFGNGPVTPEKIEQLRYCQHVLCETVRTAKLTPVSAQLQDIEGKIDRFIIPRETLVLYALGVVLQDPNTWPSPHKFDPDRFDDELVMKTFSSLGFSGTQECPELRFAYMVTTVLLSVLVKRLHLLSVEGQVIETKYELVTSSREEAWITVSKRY
UniProt E9PJD7, whole entry, looked up: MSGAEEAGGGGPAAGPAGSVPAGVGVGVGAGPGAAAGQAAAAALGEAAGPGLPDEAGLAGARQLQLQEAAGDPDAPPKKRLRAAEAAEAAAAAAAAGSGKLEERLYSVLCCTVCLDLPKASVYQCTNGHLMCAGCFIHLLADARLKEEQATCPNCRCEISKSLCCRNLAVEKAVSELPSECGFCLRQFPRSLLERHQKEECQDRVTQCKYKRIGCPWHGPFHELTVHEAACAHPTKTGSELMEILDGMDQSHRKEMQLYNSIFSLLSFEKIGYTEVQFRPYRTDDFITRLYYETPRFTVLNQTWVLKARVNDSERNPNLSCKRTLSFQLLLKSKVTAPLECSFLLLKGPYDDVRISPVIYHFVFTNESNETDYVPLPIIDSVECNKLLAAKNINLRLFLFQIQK
UniProt Q9UHQ9: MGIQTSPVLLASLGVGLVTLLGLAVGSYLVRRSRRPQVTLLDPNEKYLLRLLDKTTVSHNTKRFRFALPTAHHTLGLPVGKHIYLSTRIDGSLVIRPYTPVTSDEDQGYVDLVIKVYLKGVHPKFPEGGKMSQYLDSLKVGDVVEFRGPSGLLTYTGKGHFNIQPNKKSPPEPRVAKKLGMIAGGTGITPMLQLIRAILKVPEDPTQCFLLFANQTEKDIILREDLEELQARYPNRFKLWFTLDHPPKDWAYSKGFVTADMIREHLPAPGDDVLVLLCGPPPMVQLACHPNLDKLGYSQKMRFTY
UniProt O75935, whole entry, looked up: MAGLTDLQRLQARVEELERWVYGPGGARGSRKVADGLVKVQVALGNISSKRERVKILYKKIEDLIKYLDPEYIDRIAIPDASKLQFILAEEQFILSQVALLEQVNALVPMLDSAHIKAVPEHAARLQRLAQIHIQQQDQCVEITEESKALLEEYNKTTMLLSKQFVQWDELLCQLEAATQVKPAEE

The targets below were run with CC(C)(O)CC(=O)NCCn1ccc2ncnc(Nc3ccc(Oc4cccc(C(F)(F)F)c4)c(Cl)c3)c21 (assay: log2 fold change, soluble protein after heating vs DMSO (PISA); higher = thermal stabilisation; K562 cells, 10 uM, 30 min; active = over 0.2 and 3.5 SD of the protein, either way, in both replicates (recomputed)).
In short: (§1)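 K562 cells (2×10^6 cells/mL) were treated with 10 μM compound for 30 min, and aliquots were heated for 3 min over 48°C-58°C. Pooled aliquots were extracted in PBS with 0.5% NP-40 at 4°C, and the supernatant after 21,000xg for 90 min was measured by TMTpro 16plex LC-MS/MS with channel sums equalised. Reported thermal stability, relative to control samples and from duplicates, is a log2 fold change.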

log2 fold change, inactive:
CTPS2 (UniProt Q9NRF8) -0.011
CWC25 (UniProt Q9NXE8) 0.048
CYFIP2 (UniProt Q96F07) -0.014
CZIB (UniProt Q9NWV4) -0.015
DARS (UniProt P14868) 0.038
CYCS (UniProt P99999) 0.037
DARS2 (UniProt Q6PI48) 0
DAP3 (UniProt P51398) -0.054
CTBP1 (UniProt Q13363) 0.009
DCTN2 isoform 2 (UniProt Q13561) -0.019
CSTF1 (UniProt Q05048) 0.021
DCAKD (UniProt Q8WVC6) -0.102
DCK (UniProt P27707) -0.054
CYB5R4 (UniProt Q7L1T6) 0.019
CWF19L1 (UniProt Q69YN2) 0.014
DCAF11 (UniProt Q8TEB1) -0.071
CSTF2T (UniProt Q9H0L4) -0.018
CTU2 (UniProt Q2VPK5) -0.046
CUL2 isoform 2 (UniProt Q13617) -0.055
CTNNA2 (UniProt P26232) -0.088
CYB5R2 (UniProt Q6BCY4) 0.046
DCPS (UniProt Q96C86) 0.014
CTIF isoform 2 (UniProt O43310) -0.142
CUL1 (UniProt Q13616) -0.009
CTCF (UniProt P49711) 0.057
CSTB (UniProt P04080) -0.09
CUL3 (UniProt Q13618) -0.018
CTH (UniProt P32929) -0.017
CUL4B (UniProt K4DI93) -0.026
CYP20A1 (UniProt Q6UW02) -0.081
DCTN6 (UniProt O00399) 0.046
CYHR1 (UniProt E9PJD7) -0.047
CUTC (UniProt Q9NTM9) 0.036
DCP1A (UniProt Q9NPI6) 0.01
CSPP1 (UniProt Q1MSJ5) 0.012
DCAF1 (UniProt Q9Y4B6) -0.059
CT45A10 (UniProt P0DMU9) 0.101
CYB5R1 (UniProt Q9UHQ9) 0.003
DCTN3 (UniProt O75935) -0.049

The targets below were run with CC(C)C1=C2N=C(C=C(N2N=C1)NCC3=CC=CC=C3)NCCCCCCN in the same assay as above.
In short: as §1

log2 fold change, inactive:
CTPS2 (UniProt Q9NRF8) 0.067
CWC25 (UniProt Q9NXE8) 0.071
CYFIP2 (UniProt Q96F07) -0.044
CZIB (UniProt Q9NWV4) -0.002
DARS (UniProt P14868) 0.046
CYCS (UniProt P99999) 0.087
DARS2 (UniProt Q6PI48) -0.001
DAP3 (UniProt P51398) -0.044
CTBP1 (UniProt Q13363) 0.054
DCTN2 isoform 2 (UniProt Q13561) -0.024
CSTF1 (UniProt Q05048) 0.126
DCAKD (UniProt Q8WVC6) -0.168
DCK (UniProt P27707) 0.051
CYB5R4 (UniProt Q7L1T6) -0.023
CWF19L1 (UniProt Q69YN2) 0.206
DCAF11 (UniProt Q8TEB1) -0.004
CSTF2T (UniProt Q9H0L4) 0.062
CTU2 (UniProt Q2VPK5) -0.012
CUL2 isoform 2 (UniProt Q13617) -0.011
CTNNA2 (UniProt P26232) 0.02
CYB5R2 (UniProt Q6BCY4) 0.089
DCPS (UniProt Q96C86) 0.093
CTIF isoform 2 (UniProt O43310) 0.085
CUL1 (UniProt Q13616) 0.079
CTCF (UniProt P49711) 0.087
CSTB (UniProt P04080) 0.069
CUL3 (UniProt Q13618) 0.025
CTH (UniProt P32929) 0.051
CUL4B (UniProt K4DI93) 0.021
CYP20A1 (UniProt Q6UW02) -0.047
DCTN6 (UniProt O00399) 0.022
CYHR1 (UniProt E9PJD7) 0.207
CUTC (UniProt Q9NTM9) 0.038
DCP1A (UniProt Q9NPI6) -0.103
CSPP1 (UniProt Q1MSJ5) -0.03
DCAF1 (UniProt Q9Y4B6) -0.089
CT45A10 (UniProt P0DMU9) 0.025
CYB5R1 (UniProt Q9UHQ9) 0.002
DCTN3 (UniProt O75935) -0.035
